Values quoted from earlier work, collected in patent US11459298B2, “Class of dicationic compounds as well as the preparative method and the use thereof” (WEST CHINA HOSPITAL, SICHUAN UNIVERSITY, priority 2018, dated 2022).
Some of these results come from one statement about several compounds together.

Tested on: human body
Details: after single administration, clinical use; cited from earlier work

C=CC[N+]1([C@H]2C[C@H]3[C@@H]4CC[C@H]5C[C@H](O)[C@@H](N6CCOCC6)C[C@]5(C)[C@H]4CC[C@]3(C)[C@H]2OC(C)=O)CCCC1 [rocuronium]
duration of muscle relaxation / action time: 25 to 60 min
